Assay results published in paper PMC7819943, “Rice protein-binding microarrays: a tool to detect cis-acting elements near promoter regions in rice”.
Some of the results follow.

target: T1, OsSMF1 (Oryza sativa, UniProt Q6ZLB0 1-436); assay: protein-binding microarray (RPBM); PBS, 2% BSA, 51.3 ng/ul salmon testes DNA, 50 uM zinc acetate, 200 nM TF, 25 C, 1 h; high values mean tight binding; details: protein: recombinant; tags: N-terminal polyhistidine and DsRed monomer fusion (pET32a); chain copies: 2; label: CyDye5-dUTP incorporated in the synthesized complementary strand; 3' TTTTT single-stranded linker to array surface; dsDNA, one strand shown
T1 sequence: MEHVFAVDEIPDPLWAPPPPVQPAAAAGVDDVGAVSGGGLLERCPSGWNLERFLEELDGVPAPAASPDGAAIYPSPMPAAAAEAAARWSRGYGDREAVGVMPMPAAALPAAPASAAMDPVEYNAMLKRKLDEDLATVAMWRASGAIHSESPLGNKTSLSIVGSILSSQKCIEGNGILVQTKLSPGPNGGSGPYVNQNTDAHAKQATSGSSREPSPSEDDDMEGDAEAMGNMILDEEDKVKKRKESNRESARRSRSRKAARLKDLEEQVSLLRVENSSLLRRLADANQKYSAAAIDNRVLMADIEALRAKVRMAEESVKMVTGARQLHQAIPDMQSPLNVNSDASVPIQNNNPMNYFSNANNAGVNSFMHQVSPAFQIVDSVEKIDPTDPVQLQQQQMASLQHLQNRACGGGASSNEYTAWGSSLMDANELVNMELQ
Method in brief: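 Transcription factors, each fused N-terminally to a polyhistidine tag and DsRed, were expressed in E. coli BL21-CodonPlus and purified on Ni–NTA. A custom Agilent array was made double-stranded by primer extension with Cy5-dUTP and blocked with 2% BSA. It was incubated with 200 nM protein in PBS, 2% BSA, salmon testes DNA and 50 µM zinc acetate at 25 °C for 1 h, then washed. The binding signal is per-feature fluorescence intensity (arbitrary units) read on an Axon 4000B scanner.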

| Sequence | binding signal |
| --- | --- |
| CTCTGCTTTGCGTGGGCACTGTTTAACCATTTTGTCATGTCGGAGTCACCTAGTGCAG | 3950 fluorescence intensity (a.u.) |
| ATGGTCGTCGCTTTCGAGCCACGCTGGAACGTGCCGTGCGCGGAGTCACCTAGTGCAG | 3600 fluorescence intensity (a.u.) |
| CAAGCTGCAACAGCAGCAGCGTGGCAACGCCACGTGTCTCCGGAGTCACCTAGTGCAG | 18600 fluorescence intensity (a.u.) |
| CGATGTGTTGTGTGCTGCTGCAAATTATCATATTGTTCATCGGAGTCACCTAGTGCAG | 3260 fluorescence intensity (a.u.) |
| CCGTTTCTACTCACCCAAGCCGCCACCGCACTTCGCACCCCGGAGTCACCTAGTGCAG | 3910 fluorescence intensity (a.u.) |
| TATTATCATGCTCCGCACAACACGTCAACGAACCACAAGTCGGAGTCACCTAGTGCAG | 6700 fluorescence intensity (a.u.) |
| ACTGCTGGATTCAGATGCCACGTGCATGTTCGCATGTGGCCGGAGTCACCTAGTGCAG | 13100 fluorescence intensity (a.u.) |
| CGTCAGAGGTGGATGTCACCACTGACGGCCGGCCACCCGTCGGAGTCACCTAGTGCAG | 3310 fluorescence intensity (a.u.) |
| CTACAGGAAAGGACCACCCGATGGTACATGCATTCCCGTGCGGAGTCACCTAGTGCAG | 3410 fluorescence intensity (a.u.) |
| CATCCCGGCATGGATTGGGCGCAGGTGACGCGGATCAACGCGGAGTCACCTAGTGCAG | 6240 fluorescence intensity (a.u.) |
| CGCGTACGGGTATCCAACCAGCGTCCTCTGCATCGATCTCCGGAGTCACCTAGTGCAG | 3210 fluorescence intensity (a.u.) |
| ACGTCCATCCGTTTCTTGCATGCCACCTAAATGATTATGACGGAGTCACCTAGTGCAG | 3670 fluorescence intensity (a.u.) |
| CGAGCACCTCCGGCCGAGCCCCGCCTCCCCGTCAACAAATCGGAGTCACCTAGTGCAG | 3510 fluorescence intensity (a.u.) |
| AAATAGAAGCTTGTAATGTTGCTGACGTCGATCCTCCTGTCGGAGTCACCTAGTGCAG | 13800 fluorescence intensity (a.u.) |
| GTTTTCTCTTATATATCTGCGCGTGAGTTGTGTGCTGAATCGGAGTCACCTAGTGCAG | 3410 fluorescence intensity (a.u.) |
| AAAACCATCGAAAACAGAGGGAGAATTTGCTGGTGTGGGTCGGAGTCACCTAGTGCAG | 12100 fluorescence intensity (a.u.) |
| TACTGTAAATAAGCGTTTAAACAGTAACTACACCTGCGTACGGAGTCACCTAGTGCAG | 27400 fluorescence intensity (a.u.) |
| TACAACAATAACGAATGGAATTATCAGAGAATTGCAACTCCGGAGTCACCTAGTGCAG | 3920 fluorescence intensity (a.u.) |
| CAAAACTGTGGTATGGGCCGGGGTGGGGCGGCGCGGGCCACGGAGTCACCTAGTGCAG | 6520 fluorescence intensity (a.u.) |
| ATTTAGGTGACGTGCACGAAAGAGATGATTTCACTTTCCCCGGAGTCACCTAGTGCAG | 5270 fluorescence intensity (a.u.) |
| ATTCGTTTCGTATTTATGCCCGATATTATCCGTGCTTCTACGGAGTCACCTAGTGCAG | 3320 fluorescence intensity (a.u.) |

An excerpt of these results, with bars between the fields:
Sequence | binding signal
CATCCCGGCATGGATTGGGCGCAGGTGACGCGGATCAACGCGGAGTCACCTAGTGCAG | 6240 fluorescence intensity (a.u.)
CGCGTACGGGTATCCAACCAGCGTCCTCTGCATCGATCTCCGGAGTCACCTAGTGCAG | 3210 fluorescence intensity (a.u.)

Later entries

| Sequence | binding signal |
| --- | --- |
| ACCGGCCATTAATCATCACGCGGCGGCTATGGTTAAGGTTCGGAGTCACCTAGTGCAG | 3510 fluorescence intensity (a.u.) |
| CCATCTCTCCCAAGCTTCTTCCTTCTAATCCTTGCTGACACGGAGTCACCTAGTGCAG | 3930 fluorescence intensity (a.u.) |
| CGCCTCGTCGGCGTTGCCCTCAGGCCATTCAAATGCAAGCCGGAGTCACCTAGTGCAG | 4690 fluorescence intensity (a.u.) |
| CAACGGTAAACAAGCACACATCCACACAACGGCAATTAATCGGAGTCACCTAGTGCAG | 3340 fluorescence intensity (a.u.) |
| GAGATAAGCATTGGAGCGTGATGATGTGGTGGACCATCAACGGAGTCACCTAGTGCAG | 6160 fluorescence intensity (a.u.) |
| GACAACATAAACGCGCTGACGTGGCACTTCCCGTCGCAGTCGGAGTCACCTAGTGCAG | 36600 fluorescence intensity (a.u.) |
| AATACCGACGTGTCTAGACCTCAGCGACACACTGGAGCGTCGGAGTCACCTAGTGCAG | 5000 fluorescence intensity (a.u.) |
| TTTCCTTTGCTAGCTTACTTAGCTGGCAAAGCTTAATCTACGGAGTCACCTAGTGCAG | 3300 fluorescence intensity (a.u.) |
| TGTTGATTCCATCCTTGTGGATCGTCAGCATCTTATTCTACGGAGTCACCTAGTGCAG | 3630 fluorescence intensity (a.u.) |
| TCCTTGATTTCTCCCCTCTCTCTGTCATTTCTCTCTTCCTCGGAGTCACCTAGTGCAG | 3270 fluorescence intensity (a.u.) |
| GCTCCTTCCGATGCGGGGCCCACGTGCCCAGGAATCCGAGCGGAGTCACCTAGTGCAG | 3720 fluorescence intensity (a.u.) |
| CCATCCCACTTCGACGGAGCCCACGGCGTCAGCTCCCGTACGGAGTCACCTAGTGCAG | 3710 fluorescence intensity (a.u.) |
| GAAGCCGGCGGGGAGGTGGAAAGCCGCCGCCGCCGCCGCCCGGAGTCACCTAGTGCAG | 26400 fluorescence intensity (a.u.) |
| CACTGATTTGGTGGCTGACATGTGGACCTGAGAGTTGTGTCGGAGTCACCTAGTGCAG | 5010 fluorescence intensity (a.u.) |
| CGACCGAGCGAATTCAGTGAGCTGCATGCGTGGCGTGCGTCGGAGTCACCTAGTGCAG | 5290 fluorescence intensity (a.u.) |
| ATTTGGAGATGATGAAGCCGTAATAAACCGAGCGACTTACCGGAGTCACCTAGTGCAG | 25700 fluorescence intensity (a.u.) |
| TGCAACACTAAACACATGGGCCCACATGTCAGTCTGCCGCCGGAGTCACCTAGTGCAG | 3500 fluorescence intensity (a.u.) |
| AGCCCACTTGTGTCCTGCCACGTGTGTTATATCCTGAATACGGAGTCACCTAGTGCAG | 12700 fluorescence intensity (a.u.) |
| ATCCCACTACACGGCCACAAATTGACCGGTGAGGATTGTACGGAGTCACCTAGTGCAG | 34900 fluorescence intensity (a.u.) |
| GGCTCGCCGTGATCGGGAGCAGCCACGCCAGCTACGACATCGGAGTCACCTAGTGCAG | 4460 fluorescence intensity (a.u.) |
| AGGCTTCAAGCTGGCCACTCTAGTCACCATGGCGTCACTCCGGAGTCACCTAGTGCAG | 9760 fluorescence intensity (a.u.) |
